Results taken from PMC11915864.
No constants are given. Whether binding was seen depends on the method and setting. Binding seen in cells or lysates may run through a third protein. Some entries that bind do so weakly or less than the wild type. Sequences can lack the tags named with a protein.

By UniProt entry, the sequences of proteins in these tests, tags left out.
UniProt Q5ZLS3: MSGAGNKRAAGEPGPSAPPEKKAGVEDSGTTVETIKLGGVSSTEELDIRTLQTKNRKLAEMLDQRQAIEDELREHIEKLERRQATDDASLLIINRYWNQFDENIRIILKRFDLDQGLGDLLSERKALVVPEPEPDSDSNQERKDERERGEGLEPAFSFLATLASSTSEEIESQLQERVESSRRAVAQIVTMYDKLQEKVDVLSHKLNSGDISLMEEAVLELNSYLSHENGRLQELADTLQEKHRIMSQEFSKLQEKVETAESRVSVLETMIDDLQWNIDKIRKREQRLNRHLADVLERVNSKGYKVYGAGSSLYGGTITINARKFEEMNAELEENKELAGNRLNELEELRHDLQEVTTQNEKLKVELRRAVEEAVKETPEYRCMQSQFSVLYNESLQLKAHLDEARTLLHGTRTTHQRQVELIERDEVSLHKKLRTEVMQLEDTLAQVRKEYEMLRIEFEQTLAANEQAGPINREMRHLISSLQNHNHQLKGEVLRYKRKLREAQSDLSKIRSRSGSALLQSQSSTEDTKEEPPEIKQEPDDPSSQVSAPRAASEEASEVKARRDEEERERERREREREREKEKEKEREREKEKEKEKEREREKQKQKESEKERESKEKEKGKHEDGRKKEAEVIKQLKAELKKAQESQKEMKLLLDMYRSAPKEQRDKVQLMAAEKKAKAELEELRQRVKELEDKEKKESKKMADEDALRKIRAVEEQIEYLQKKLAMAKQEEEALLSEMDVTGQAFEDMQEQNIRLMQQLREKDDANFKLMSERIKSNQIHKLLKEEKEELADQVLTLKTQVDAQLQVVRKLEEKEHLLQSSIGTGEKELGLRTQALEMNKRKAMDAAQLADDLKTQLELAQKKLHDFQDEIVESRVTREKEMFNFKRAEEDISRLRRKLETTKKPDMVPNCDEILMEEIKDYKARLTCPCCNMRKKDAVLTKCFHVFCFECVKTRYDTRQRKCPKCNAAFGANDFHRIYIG

Molecular target: T1, chicken MDA5 (melanoma differentiation-associated gene 5), Flag-tagged (chicken) (UniProt D9N195)
T1 sequence: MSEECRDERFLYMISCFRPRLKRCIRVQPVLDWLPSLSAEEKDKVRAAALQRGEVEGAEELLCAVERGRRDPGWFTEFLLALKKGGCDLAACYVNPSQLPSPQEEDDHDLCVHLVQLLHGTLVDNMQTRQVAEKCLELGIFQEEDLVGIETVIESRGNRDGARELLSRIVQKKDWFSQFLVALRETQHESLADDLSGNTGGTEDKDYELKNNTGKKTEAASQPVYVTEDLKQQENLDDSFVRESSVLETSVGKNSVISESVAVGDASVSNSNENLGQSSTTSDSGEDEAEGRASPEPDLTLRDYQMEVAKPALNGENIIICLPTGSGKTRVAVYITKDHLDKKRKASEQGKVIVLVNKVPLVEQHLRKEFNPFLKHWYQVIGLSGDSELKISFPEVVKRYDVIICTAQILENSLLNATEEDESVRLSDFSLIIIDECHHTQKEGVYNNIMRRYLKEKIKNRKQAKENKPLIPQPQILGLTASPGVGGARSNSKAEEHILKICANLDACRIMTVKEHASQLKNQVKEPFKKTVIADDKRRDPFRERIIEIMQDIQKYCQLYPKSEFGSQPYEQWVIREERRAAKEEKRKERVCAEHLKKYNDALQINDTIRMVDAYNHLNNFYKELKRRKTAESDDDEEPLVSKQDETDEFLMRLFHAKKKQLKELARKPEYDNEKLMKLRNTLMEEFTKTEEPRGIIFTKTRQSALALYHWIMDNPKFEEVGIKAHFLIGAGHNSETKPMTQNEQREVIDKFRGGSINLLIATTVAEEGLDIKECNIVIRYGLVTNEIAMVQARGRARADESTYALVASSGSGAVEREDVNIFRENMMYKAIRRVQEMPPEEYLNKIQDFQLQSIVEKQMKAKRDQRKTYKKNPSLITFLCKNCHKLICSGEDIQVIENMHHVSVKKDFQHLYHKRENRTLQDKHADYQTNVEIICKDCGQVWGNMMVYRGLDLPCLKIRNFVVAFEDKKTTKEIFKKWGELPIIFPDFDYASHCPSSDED
Assay: co-IP; HEK293T cells co-transfected with RNF20-EGFP and MDA5-Flag (1000 ng/well, six-well plates); lysates precipitated with Flag antibodies on protein G magnetic beads, then immunoblotting; IP buffer 50 mM Tris pH 7.4, 150 mM NaCl, 1% NP-40, 0.5% sodium deoxycholate, 0.1% SDS

chicken E3 ubiquitin ligase Ring Finger Protein 20 (RNF20), EGFP-tagged (from UniProt Q5ZLS3 1-984) (enzyme)
binding: binds
